Experimental data taken from publication PMC12080395.
These are yes or no findings as the source states them, for the method shown. Binding seen in cells or lysates may run through a third protein. Some entries that bind do so weakly or less than the wild type.

Biological target: STAT3 (endogenous, mouse heart tissue) (mouse (endogenous in heart tissue)) (UniProt P42227)
Assay: co-IP; whole extracts of heart tissue of STZ/HFD-induced or db/db diabetic mice treated with or without paquinimod; STAT3 or STIP1 antibody at 4°C overnight, protein A/G magnetic beads

binding: binds
Substance: STIP1 (endogenous, mouse heart tissue) (from UniProt Q60864 1-543)
